PubChem BioAssay AID686938, Drosophila RNAi Screening Center, 2013
Screen: 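Fly genes required for calcium entry once internal stores are emptied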 (primary screen). Cell system: Drosophila S2R+ cells. Reagents: long dsRNA against Drosophila genes, about 0.25 µg dsRNA per well, roughly 10,000 cells. Timing: 5 days of knock-down before the calcium assay. Treatment: thapsigargin (SERCA pump blocker) to empty calcium stores; entry signal taken 4 min after adding it. Read-out: 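Per-well fluo-4 fluorescence in two replicates, unnormalised, measured in resting cells and 4 min after store depletion by the SERCA blocker thapsigargin; ratio of the two present in few wells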. Scale: calcium entry signal: higher = stronger calcium signal after store depletion; resting calcium signal: higher = higher resting calcium signal. Units: calcium entry signal in fluorescence units; resting calcium signal in fluorescence units. Active means: 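Called when the plate z-score of the entry-to-rest ratio, mean of duplicates, falls below −3; wells with low overall dye signal (Fmax z below −2) or more than five off-targets excluded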. Meaning of the calls: active = strongly reduced calcium entry; inactive = no strong reduction.
The deposit covers about 23,000 reagents; shown is a random part of those with a known target gene and a result. Of all reagents, 75 (0.33%) are marked active. 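Raw plate signals without normalisation; calls rest on plate z-scores that were not deposited; ratio present for only 364 wells.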 A number with no mark means an inactive call. Names joined by + are all predicted targets of the reagent. Not given: the dose of the treatment.

{"Target gene": "SLC22A", "DRSC id": "DRSC11826", "calcium entry signal, replicate 1": 3.31e7, "calcium entry signal, replicate 2": 5.31e7, "resting calcium signal, replicate 1": 1.71e7, "resting calcium signal, replicate 2": 2.39e7}
{"Target gene": "SLC22A", "DRSC id": "DRSC11827", "calcium entry signal, replicate 1": 3.51e7, "calcium entry signal, replicate 2": 5.73e7, "resting calcium signal, replicate 1": 1.59e7, "resting calcium signal, replicate 2": 2.29e7}
{"Target gene": "mdy", "DRSC id": "DRSC01559", "calcium entry signal, replicate 1": 2.73e7, "calcium entry signal, replicate 2": 3.86e7, "resting calcium signal, replicate 1": 1.64e7, "resting calcium signal, replicate 2": 1.71e7}
{"Target gene": "mdy", "DRSC id": "DRSC02250", "calcium entry signal, replicate 1": 5.55e7, "resting calcium signal, replicate 1": 2.70e7}

Next part (2 carried over from the part before).
{"Target gene": "mdy", "DRSC id": "DRSC01559", "calcium entry signal, replicate 1": 2.73e7, "calcium entry signal, replicate 2": 3.86e7, "resting calcium signal, replicate 1": 1.64e7, "resting calcium signal, replicate 2": 1.71e7}
{"Target gene": "mdy", "DRSC id": "DRSC02250", "calcium entry signal, replicate 1": 5.55e7, "resting calcium signal, replicate 1": 2.70e7}
{"Target gene": "tud", "DRSC id": "DRSC04719", "calcium entry signal, replicate 1": 2.98e7, "calcium entry signal, replicate 2": 4.32e7, "resting calcium signal, replicate 1": 1.74e7, "resting calcium signal, replicate 2": 1.91e7}
{"Target gene": "Gmppa", "DRSC id": "DRSC07108", "calcium entry signal, replicate 1": 3.82e7, "calcium entry signal, replicate 2": 3.63e7, "resting calcium signal, replicate 1": 1.95e7, "resting calcium signal, replicate 2": 1.62e7}
{"Target gene": "CG4409", "DRSC id": "DRSC06869", "calcium entry signal, replicate 1": 4.85e7, "calcium entry signal, replicate 2": 6.64e7, "resting calcium signal, replicate 1": 2.21e7, "resting calcium signal, replicate 2": 3.18e7}
{"Target gene": "CG10581", "DRSC id": "DRSC11623", "calcium entry signal, replicate 1": 3.38e7, "calcium entry signal, replicate 2": 4.93e7, "resting calcium signal, replicate 1": 1.58e7, "resting calcium signal, replicate 2": 2.13e7}
{"Target gene": "comt", "DRSC id": "DRSC20319", "calcium entry signal, replicate 1": 3.49e7, "calcium entry signal, replicate 2": 4.45e7, "resting calcium signal, replicate 1": 1.83e7, "resting calcium signal, replicate 2": 2.07e7}
{"Target gene": "robl", "DRSC id": "DRSC07674", "calcium entry signal, replicate 1": 5.87e7, "calcium entry signal, replicate 2": 5.50e7, "resting calcium signal, replicate 1": 2.57e7, "resting calcium signal, replicate 2": 2.72e7}
{"Target gene": "CG6962", "DRSC id": "DRSC16153", "calcium entry signal, replicate 1": 1.73e7, "calcium entry signal, replicate 2": 1.94e7, "resting calcium signal, replicate 1": 9.97e6, "resting calcium signal, replicate 2": 1.13e7}
{"Target gene": "CAH1 + Adat1", "DRSC id": "DRSC02009", "calcium entry signal, replicate 1": 5.64e7, "resting calcium signal, replicate 1": 2.48e7}
